Results on 39 compounds are retold here after PubChem BioAssay AID2685 (National Center for Advancing Translational Sciences (NCATS), 2010).

Structures are written as SMILES. Some of the results follow. Shown are side measurements of this screen, not its main read-out; they come without a call. The list favours compounds with an active or inconclusive main result. Words in brackets tell the shape of the fitted curve; partial curves, single points and poor fits give uncertain potencies.

The test is described as follows: qHTS Assay for Lipid Storage Modulators in Drosophila S3 Cells.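 On cell number change: cells counted by Cell Tracker Red CMTPX staining in the red channel.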 The settings on record: BODIPY lipid droplet fluorescence, 18-24 h; for cell number change: measured here: cell count max response, cells fed with added oleic acid. In short, it runs like this: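 Drosophila S3 cells loaded with oleic acid (400 uM, as added) and compounds at several concentrations; lipid droplets imaged by 488-nm laser-scanning cytometry, 500–530 nm intensity and object ratio to cell channel. Percent activity normalized to 20 uM Triacsin C.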
(In qHTS, concentration-response curves come from the screen itself.)

Where [1] appears, read: measured here: cell number channel AC50, cells fed with added oleic acid.
Where [2] appears, read: measured here: lipid fluorescence (Fed channel) AC50, cells fed with added oleic acid.

What is called AC50 is the midpoint of the concentration-response curve, whichever way the signal moves. For `O=C(CN1C(=O)NC2(CCCC2)C1=O)OCc1cccc(Br)c1`, the cell number change is 11.1%. For the same compound, the AC50 under setting [1] was 0.146 µM [falling, full curve, poor fit]. Further, the concentration at half-maximal activity (AC50) under setting [2] was 29.1 µM [falling, single point].

Consider `CS(=O)(=O)c1ccc(C(=O)NCCN2C(=O)S/C(=C\c3cccnc3)C2=O)cc1[N+](=O)[O-]`, for which the cell number change was -22.8%. The AC50 under setting [1] is 0.116 µM [falling, full curve, poor fit]. For the same compound, the AC50 under setting [2] was 0.092 µM [falling, full curve].

Regarding `O=C(Nc1ccccc1)C1CC2CCCC(C1)C2=O` (configuration not stated), the cell number change is -19%. Moreover, the AC50 under setting [2] is 29.1 µM [falling, single point].

In the case of `CCCCCCC(=O)N=Nc1c(O)[nH]c2ccc([N+](=O)[O-])cc12`, the cell number change was 11.5%. Also, the concentration at half-maximal activity (AC50) under setting [2] was 18.4 µM [rising, single point].

Consider `CCN(CC)C(=O)CN1CCC(c2nc3cc(C)c(C)cc3[nH]2)CC1`, for which the cell number change is 22.3%. In addition, under setting [2], the concentration at half-maximal activity (AC50) was 3.26 µM [falling, single point].

Take `COc1cc(N)c(Cl)cc1C(=O)OCC(=O)NC1CCCC1`: the cell number change was -10.8%.

Turning to `CCOC(=O)c1c(NC(=O)C(C)Sc2cccc[n+]2[O-])sc2c1CCN(Cc1ccccc1)C2` (configuration not stated), the cell number change was -11.2%. Besides, the AC50 under setting [2] is 32.6 µM [falling, single point].

Turning to `O=C(Nc1ccc2c(c1)OCCO2)C1CCCN1S(=O)(=O)c1ccc(Cl)cc1` (configuration not stated), the cell number change worked out at 13.9%. Moreover, the AC50 under setting [2] is 6.51 µM [rising, single point].

With `CCC(=O)NCCn1ccc2ccccc21`, the AC50 is, setting by setting: under setting [1], 0.0259 µM [falling, full curve, poor fit]; under setting [2], 1.3 µM [falling, partial curve].

Consider `Cc1cc(SCC(=O)NCCCN2CCCC2=O)nc2ccccc12`, for which the cell number change was -6.95%. In addition, the AC50 under setting [2] is 6.51 µM [rising, single point].

Take `Cc1ccc(S(=O)(=O)NCC2CCCO2)cc1` (configuration not stated): the cell number change was 18.9%. Also, the AC50 under setting [2] was 29.1 µM [rising, single point].

Regarding `COc1ccc(CCNc2ncnc3c2nnn3Cc2ccccc2)cc1`, the cell number change is -5.87%.

As to `CCN(CC)S(=O)(=O)c1ccc(N2CCOCC2)c(NC(=O)CC2OC(=O)c3ccccc32)c1` (configuration not stated), the cell number change was -9.45%. For the same compound, under setting [2], the AC50 was 11.6 µM [falling, partial curve].

In the case of `O=C(CCC(=O)N1CCOc2ccccc21)NCCCN1CCOCC1`, the cell number change was determined as 18.7%.

Consider `O=C(CCNS(=O)(=O)c1c(Cl)cccc1Cl)OCC(=O)c1ccccc1F`, for which the AC50 under setting [1] is 6.51 µM [rising, partial curve].

`Cc1ccc(C(=O)NCC(=O)Nc2ccc(C)c(S(=O)(=O)Nc3ccc(Cl)cc3)c2)s1`: the cell number change is 28.9%. Also, the AC50 under setting [2] is 3.26 µM [rising, full curve].

Take `CCOc1ccc2[nH]c(=O)c(CN(Cc3ccco3)C(=O)c3ccc(Br)cc3)cc2c1`: the cell number change is -40.9%. Moreover, under setting [1], the AC50 was 18.4 µM [falling, single point]. The AC50 under setting [2] was 32.6 µM [falling, single point].

`CCc1ccc(N2CC(C(=O)OCC(=O)Nc3cc(C)on3)CC2=O)cc1` (configuration not stated): the cell number change was -24.1%. Also, the half-maximal activity concentration (AC50) under setting [1] is 0.0461 µM [falling, full curve, poor fit]. In addition, under setting [2], the AC50 was 0.164 µM [falling, full curve].

As to `Cc1ccn2cc(C34CC5CC(CC(C5)C3)C4)nc2c1`, the AC50 under setting [2] was 0.13 µM [rising, full curve, poor fit].

For the compound `CC1CCN(C(=O)CSc2nc(C(C)C)nc3c2c(=O)n(C)c(=O)n3C)CC1`, the cell number change is -51.8%. Also, under setting [1], the AC50 was 1.16 µM [falling, full curve]. Also, the AC50 under setting [2] is 0.366 µM [falling, full curve].

`c1coc(CNc2nc3ccccc3n2CCN2CCOCC2)c1`: the cell number change was determined as 14.7%. Also, under setting [2], the concentration at half-maximal activity (AC50) was 7.31 µM [rising, partial curve].

`CCOc1ccccc1-n1c(C)cc(C=O)c1C`: the cell number change stood at 96.6%. The AC50 under setting [1] was 18.4 µM [rising, single point].

Consider `CC1NC(=S)N(C2CCCCC2)C1=O` (configuration not stated), for which the cell number change is -36.4%. Under setting [1], the half-maximal activity concentration (AC50) is 1.16 µM [falling, full curve]. In addition, the AC50 under setting [2] is 5.8 µM [falling, full curve].

Regarding `Cc1cccc(C(=O)NCc2ccc(S(N)(=O)=O)cc2)c1[N+](=O)[O-]`, the cell number change turned out to be 12.7%.

As for `COCCOC(=O)C1=C(C)NC(=O)NC1c1c(Cl)nc2c(C)cccn2c1=O` (configuration not stated), the cell number change was 6.32%. For the same compound, under setting [2], the AC50 is 1.84 µM [rising, full curve, poor fit].

On to `CC1=C(C)C(=O)N(C(C)CCc2ccccc2)C1=O` (configuration not stated), for which the cell number change is -0.275%. For the same compound, under setting [2], the AC50 was 29.1 µM [rising, single point].

Regarding `CN(CC(=O)Nc1ccc(N2CCOCC2)cc1)C(=O)C1CCCC1`, the cell number change is -34.9%. The AC50 under setting [1] was 25.9 µM [falling, single point]. For the same compound, the half-maximal activity concentration (AC50) under setting [2] is 25.9 µM [falling, single point].

On to `CCCc1nc2ccccc2[nH]1`, for which the cell number change was -6.84%.

With `Cc1ccc(NC(=O)c2ccc(CSc3ccccn3)cc2)c(O)c1`, the cell number change was -2.38%. Also, the concentration at half-maximal activity (AC50) under setting [1] is 3.26 µM [falling, partial curve]. The AC50 under setting [2] is 3.66 µM [falling, partial curve, poor fit].

For the compound `O=C(O)c1cc(S(=O)(=O)N2CCN(c3ccccn3)CC2)ccc1Cl`, the cell number change is -45.3%.

On to `O=C1NCCN1CCNS(=O)(=O)c1ccc(F)cc1`, for which the cell number change was -17.2%. Also, under setting [1], the concentration at half-maximal activity (AC50) was 0.517 µM [falling, partial curve].

Take `CC(=O)NC(Cc1ccccc1)c1ccc2c(c1)OCCCO2` (configuration not stated): the cell number change is 138%. In addition, the AC50 under setting [1] was 29.1 µM [rising, single point]. Besides, the AC50 under setting [2] is 25.9 µM [rising, single point].

As for `Cc1nn(-c2ccccc2)c(C)c1-c1nnc(C(F)(F)F)o1`, the cell number change amounted to 35.2%. Moreover, the AC50 under setting [1] is 13 µM [rising, partial curve]. In addition, the half-maximal activity concentration (AC50) under setting [2] was 29.1 µM [rising, single point].

Take `N#Cc1c(N2CCCC2)nsc1-c1ccccc1`: the cell number change was 14.8%. Besides, under setting [2], the AC50 is 3.66 µM [rising, full curve].

Take `COC(=O)c1ccc(NC(=O)c2cccc(OC)c2)cc1`: the cell number change is -9.08%.

Take `CC[C@H](C)[C@@H](CNC)NC[C@@H](Cc1ccc(O)cc1)NCC(C)(C)C`: the AC50 under setting [2] is 29.1 µM [rising, single point].

Turning to `C=CCN1C(=O)c2ccc(C(=O)OCC(=O)N(CC)C3CCS(=O)(=O)C3)cc2C1=O` (configuration not stated), the cell number change came to 14.5%.

On to `CCN(CC(=O)Nc1c(F)cccc1F)C(=O)c1ccc(-n2cncn2)c([N+](=O)[O-])c1`, for which the cell number change was found to be 17.6%. The AC50 under setting [2] is 5.8 µM [rising, partial curve].

In the case of `COc1ccc(C(=O)NCCSCc2ccc(Cl)cc2)cc1OC`, the cell number change is -7.87%. Further, under setting [2], the AC50 was 20.6 µM [falling, single point].
